From PubChem BioAssay AID504706 (National Center for Advancing Translational Sciences (NCATS), 2011)
About 200 (0.062%) of roughly 320,000 compounds were called active. Inconclusive results (about 6%) are left out. The call rests on the fitted dose curve; in most records, active means well fitted activation curve with a large enough effect; inconclusive means small, poorly fitted or top-dose-only effect; inactive means no such curve, though single readings can be large or run the other way. This is a selection; strong and weak results do not stand in their true shares. Entries without a call were filed so in the source.

assay: qHTS assay for re-activators of p53 using a Luc reporter; details: H1299 p53-A138V BP100-luciferase reporter, luminescence, 24 h; activity change, positive = activation: at 92.2 µM (top of the series); further: nearly all actives have a fitted effect of over 45% in size; on activity change, positive = activation: % of control where 0% means no effect
From the text: The p53 tumor suppressor plays a key role in suppression of tumorigenesis and in human carcinogenesis. It is frequently found inactivated in human cancers, mainly by point mutation. These point mutations are found in a wide variety of human cancers and a majority of them affect the DNA binding domain of the protein. The point mutations either alter native p53 conformation or abolish DNA contact. Additionally, cancer cells with p53 mutations are more resistant to chemo-radiation therapies. In order to find activators to reactivate this important protein, a cell-based screen for p53-dependent luciferase-reporter expression was developed. A p53-null H1299 lung cancer cell line was stably co-transfected with a temperature sensitive p53 mutant, p53-A138V, and a p53-responsive BP100-luciferase reporter. This cell model has previously been characterized in a gene chip profiling experiment for p53 activation. By lowering the culture temperature from 37 deg C (mutant p53 conformation) to 32 deg C (w.t. p53 conformation), a 30-60 fold increase in activation of luciferase activity is observed. At assay temperate, 37 deg C, basal reporter expression is very low and after the addition of detection reagent, a luminescent read-out is carried out. NIH Chemical Genomics Center [NCGC] NIH Molecular Libraries Probe Production Centers Network [MLPCN] MLPCN Grant: DA031088-01A1 Assay Provider (PI): Yi Sung, University of Michigan at Ann Arbor
5ul of 1000 cells per well are dispensed in all wells except column 4, into white solid-bottom TC-treated Kalypsys plates. The cells are kept in Opti-MEM and supplemented with 10% FBS and dispensed using a Multidrop (Thermo). Then using the Kalypsys pin-tool, 23nl of compounds are pinned. The compounds are starting concentration at 10mM, with 1:5 dilution, 4 points, and the control compound nocodazole is pinned in column 1 at 25mM, 1:3 dilution, in duplicate, 25mM nocodazole is pinned in column 2. Please note, all concentrations are working concentrations. 5ul of 1pM purified luciferase enzyme is dispensed using the Kalypsys dispenser in column 4. Plates are incubated for 24 hrs at 37 deg C, 5% CO2, and 95% humidity. Then 4ul of the detection reagent Amplite (ABD Bioquest) is added using the Kalypsys dispenser. Plates are incubated for 10 min at ambient room temperature and are then read on the ViewLux (Perkin Elmer) using a clear filter for a luminescent read-out.
Potency means the concentration at half of the fitted maximal effect.

Row | SMILES | activity change, positive = activation | Potency
1 | CNC(=O)Oc1cccc(-c2cn3cc(Cl)ccc3n2)c1 | 134% | 
2 | COc1ccccc1CN1CCCC(C(=O)c2ccccc2OC)C1 (stereo not given) | inactive: -37.4% | 
3 | CC(=NCCN1CCCCC1)c1c(O)[nH]c(=O)[nH]c1=O | 29.9% | 
4 | O=C(Nc1ccc(Cl)cc1)Nc1ccc(Cl)c(Cl)c1 |  | active: 28.2 µM
5 | COc1ccc(CCN2CCCC(CN(C)C(=O)c3cc(C)oc3C)C2)cc1 (stereo not given) |  | active: 35.5 µM
6 | Cc1cc(OCCCC(=O)NCc2cccs2)ccc1Cl | 32.6% | 
7 | CN1CCN(c2c[nH]c(=O)[nH]c2=O)CC1 | 37.6% | 
8 | C[C@]12CCC(=O)C(O)=C1CC[C@@H]1[C@@H]2CC[C@]2(C)C(=O)CC[C@@H]12 | 41.3% | 
9 | CCn1nc(-c2ccccc2)nc2c(=O)n(C)c(=O)nc1-2 | -39% | 
10 | OC(c1ccccc1)(c1ccccc1)C1CCCN1 (stereo not given) | 37.5% | 

Entries of single compounds, looked up by structure.
CNC(=O)Oc1cccc(-c2cn3cc(Cl)ccc3n2)c1 is listed as activity change, positive = activation: 134%
Cc1cc(OCCCC(=O)NCc2cccs2)ccc1Cl is listed as activity change, positive = activation: 32.6%
